± gives the standard deviation. The list shows a part of the results. Many entries were measured with a wide error.
Tested on: EfPiwi piRISC loaded with L1MC piRNA (26 nt)
Experiment: pre-steady-state target cleavage rate (min^-1); guide: L1MC piRNA 5'p-UAACUAAAUACUAUGCAAGCUGUAGG; MIWI and MILI are mouse PIWI proteins and EfPiwi is from a freshwater sponge; tags in brackets are library labels; higher = faster piRNA-guided slicing of the target
Conditions: auxiliary factor: 500 nM Ephydatia muelleri Gtsf1
Outline: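 A transcribed, DNA-blocked target RNA library (0.1 nM) and 1 nM active affinity-purified piRISC bearing one synthetic guide were incubated in HEPES–potassium acetate buffer at 33 °C for 0–8 or 0–960 min, either with or without 500 nM GTSF1 partner protein. Uncleaved targets were sequenced, normalised to depth and to weakly complementary targets, and pooled over three trials, with k3 capped at 0.0001 min^-1. The pre-steady-state cleavage rate was derived with a burst-and-steady-state fit.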

Sequence | pre-steady-state target cleavage rate
UCCUCCUACAGCUAGCAUAGUAUUAAGUUA | 0.00633 ± 0.0029
UCCUGGAACAGCUUGGAUUGUAUUUAGUUA | 0.00093 ± 0.006
UCCUGCUACAGCUUGCUUAGUAAUUAGUUA | 0.0139 ± 0.0051
UCCUGGUUCAGCUAGCAUAGUAUUUAGUUA | 0.0263 ± 0.0083
UCCUGCUACAGCUUGCAUAGUAGUUUAGUUA | 0.00695 ± 0.0028

Same assay, conditions: auxiliary factor: none (no Gtsf1)

Sequence | pre-steady-state target cleavage rate
UCCUGGAUGUCGAACGUAUGUAUUUAUUA | < 0.0001
UCCUCCAACAGCUUGCAUACUAUUUAGUUA | 0.00132 ± 0.0057
UCCUGGAUGUCGAACGUAAGAAUUUAGUAA | < 0.0001
UCCUGGAUGAGGUUGCAUAGUAUUUAGUUA | 0.00333 ± 0.0049
UCCUGGAACAGCCUUGCAUAGUAUUUAGUUA | 0.000943 ± 0.01
UCCUGGAUGUCGAACGUAUGAUAUUAGUUA | 0.000264 ± 0.022
UCCUGGAUGUCGAUGGAUAGAAUUUAGUUA | < 0.0001
UCCUGGAUGACCUUGCAUAGUAUUUAGUUA | 0.00101 ± 0.0089
UCCUGCUACACCUUGGAUAGUAUUUAGUUA | 0.000612 ± 0.014
UCCUGGAUGAGCUUGCAUUCAUAAAUCAAA [g13:g21:cont:t1A] | 0.000217 ± 0.031
UCCUGGAUGGGCUUGCAUAGUAUUUAGUUA | 0.000437 ± 0.029

Rewritten as a markdown table: part of the list above.

| Sequence | pre-steady-state target cleavage rate |
| --- | --- |
| UCCUGGAUGUCGAACGUAAGAAUUUAGUAA | < 0.0001 |
| UCCUGCUACACCUUGGAUAGUAUUUAGUUA | 0.000612 ± 0.014 |
| UCCUGGAUGGGCUUGCAUAGUAUUUAGUUA | 0.000437 ± 0.029 |

Reference: the supplement of paper PMC10338343
